Test results from paper PMC10108392, “Rimonabant-Based Compounds Bearing Hydrophobic Amino Acid Derivatives as Cannabinoid Receptor Subtype 1 Ligands” (ACS Medicinal Chemistry Letters, 2023).

Chains of the proteins cited; added tags and fusions are not shown.
UniProt P20272, whole entry: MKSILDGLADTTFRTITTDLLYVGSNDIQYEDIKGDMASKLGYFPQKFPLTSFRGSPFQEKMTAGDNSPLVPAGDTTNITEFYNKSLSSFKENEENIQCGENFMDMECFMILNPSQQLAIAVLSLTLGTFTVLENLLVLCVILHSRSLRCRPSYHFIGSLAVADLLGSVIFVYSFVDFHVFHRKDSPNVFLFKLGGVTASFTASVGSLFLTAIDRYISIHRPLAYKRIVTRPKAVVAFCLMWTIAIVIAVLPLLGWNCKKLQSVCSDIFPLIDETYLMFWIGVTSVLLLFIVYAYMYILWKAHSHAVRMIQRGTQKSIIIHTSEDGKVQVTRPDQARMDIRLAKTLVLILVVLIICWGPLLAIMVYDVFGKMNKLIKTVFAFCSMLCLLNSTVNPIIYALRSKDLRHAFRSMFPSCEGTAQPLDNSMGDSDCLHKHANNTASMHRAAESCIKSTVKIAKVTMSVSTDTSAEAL

Legend:
[1] = biological target: CB1R (Rattus norvegicus, UniProt P20272); experiment: Ligand stimulated [35S]GTPγS binding assay in rat brain membranes; assay type: biochemical; details: basal [35S]GTPγS binding set as 100%, ± SEM
[2] = test system: mice; experiment: Feeding test (food intake); assay type: in vivo, mouse; details: 10 mg/kg i.p., 1-h test, vs vehicle

Cc1c(C(=O)N[C@H](C(N)=O)C(C)(C)C)nn(-c2ccc(Cl)cc2Cl)c1-n1cccc1Cl
[35S]GTPγS stimulation Emax [1]: 70 ± 7%
food intake [2]: slight reduction in food intake

Cc1c(C(=O)N[C@H](C(N)=O)C(C)C)nn(-c2ccc(Cl)cc2Cl)c1-n1cccc1Cl
[35S]GTPγS stimulation Emax [1]: 60 ± 2.9%

Structures were worked out from names or drawings and are uncertain.
